Test: general procedure: solution-phase peptide synthesis; EDC/HOBt
Conditions: late stage modification step

Substance: Try-D-Ala-Gly-(2R).gradient.^E Phe-Leu
- step yield: 70.4%
